Results from US20120283184A1 (published 2012).
These are yes or no findings as the source states them, for the method shown.

Chains of the proteins cited; added tags and fusions are not shown. Lines headed by an entry give the natural chain unless they say otherwise; changes in a name come on top. Residues count along the entry.
UniProt P35918, residues 20-762: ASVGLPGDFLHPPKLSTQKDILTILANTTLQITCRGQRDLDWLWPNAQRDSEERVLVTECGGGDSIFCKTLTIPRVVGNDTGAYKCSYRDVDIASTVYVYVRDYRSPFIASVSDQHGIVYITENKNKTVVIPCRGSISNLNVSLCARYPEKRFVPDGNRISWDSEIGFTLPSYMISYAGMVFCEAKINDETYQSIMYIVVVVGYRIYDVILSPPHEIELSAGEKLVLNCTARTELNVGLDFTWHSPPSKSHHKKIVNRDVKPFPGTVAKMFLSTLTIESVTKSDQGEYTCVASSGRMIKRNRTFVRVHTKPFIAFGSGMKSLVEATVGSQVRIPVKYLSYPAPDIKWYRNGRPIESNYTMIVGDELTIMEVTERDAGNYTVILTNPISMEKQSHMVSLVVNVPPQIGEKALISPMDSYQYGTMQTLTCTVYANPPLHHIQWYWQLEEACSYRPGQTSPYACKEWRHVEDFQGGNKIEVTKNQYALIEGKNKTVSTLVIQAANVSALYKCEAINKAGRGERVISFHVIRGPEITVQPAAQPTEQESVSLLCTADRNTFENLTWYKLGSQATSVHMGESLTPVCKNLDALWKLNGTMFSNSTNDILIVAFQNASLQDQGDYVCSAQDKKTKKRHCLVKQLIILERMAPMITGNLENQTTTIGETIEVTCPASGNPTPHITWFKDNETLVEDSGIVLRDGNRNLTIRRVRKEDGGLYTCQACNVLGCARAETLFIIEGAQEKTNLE

Target: Flk-1-Fc (mouse vascular endothelial growth factor receptor-2 Fc chimera) (mouse) (UniProt P35918)
Test: radioactive equilibrium binding assay with VEGFR-2-Fc chimeras (FIG. 4)

binding: no binding
B1: VR28 (designed binder)
chain: VSDVPRDLEVVAATPTSLLISWRHPHFPTRYYRITYGETGGNSPVQEFTVPLQPPTATISGLKPGVDYTITGYAVTVAQNDHELITPISINYRT
